Data from PubChem BioAssay AID504582 (Broad Institute, 2011).
Out of some 340,000 compounds screened, about 2,300 (0.68%) were called active. This list was built around the results that the source calls inconclusive (neither active nor inactive); the mix of calls is not that of the screen. Cut-off read from the data, not from the text of the source: active = growth rescue above about 28% (passing the limit was not always enough); inconclusive = no clear call, values can overlap the other calls. The source holds several records for some structures; these can differ, active in one and inactive in another.

Assay: rescue of yeast from PfHsp40 toxicity, primary screen, S. cerevisiae, ATP luminescence (AID 504582);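 note: yeast W303a lacking pdr1 and pdr3 grown in galactose medium; growth measured after three days at 30 °C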
Conditions: S. cerevisiae expressing PfHsp40, growth rescue, at 12.5 µM, active compounds read high

Row | SMILES | growth rescue
1 | CC(C)N1C(=O)CCC1C(=O)NCc1ccc(F)cc1Cl (stereo not given) | inconclusive: 46.8%
2 | COc1ccccc1-c1sc2cc3c(cc2c1C#Cc1cncn1C)OCO3 | active: 246%
3 | Cc1cc(C)nc(SCc2cc(=O)c(OC(=O)c3ccc(S(=O)(=O)N(C)C)cc3)co2)n1 | active: 90.3%
4 | O=S(=O)(O)c1cc(Cl)cc(N=Nc2ccc(O)cc2O)c1O | active: 58.3%
5 | Cc1cc(C(C)(C)C)cc(S(=O)(=O)NCCc2ccncc2)c1C | inconclusive: 35.4%
6 | CCCCC(=O)NC(=S)Nc1cc([N+](=O)[O-])ccc1OC | inconclusive: 27.2%
7 | CCCC(=O)NC(c1ccc(Cl)cc1)c1ccc2cccnc2c1O (stereo not given) | inconclusive: 29.9%
8 | CCOc1ccccc1NC(=O)c1cccc(NC(=O)CC(c2ccccc2)c2ccccc2)c1 | inconclusive: 30.8%
9 | CC(=O)C(C)Oc1ccc2c3c(c(=O)oc2c1C)CCCC3 (stereo not given) | inconclusive: 33.9%
10 | O=S(=O)(c1ccc(Cl)cc1Cl)n1ccc2cccnc21 | inconclusive: 25.4%
11 | C=C(C)C(O)CC/C(C)=C/Cc1c(O)ccc(C(=O)/C=C/c2ccc(O)cc2)c1O (stereo not given) | inconclusive: 390%
12 | COc1cc(C)c(C)cc1S(=O)(=O)NC1CC(C)(C)NC(C)(C)C1 | inconclusive: 49.6%
13 | Cc1nnc(OC(C)C)c2nn(-c3ccccc3F)c(C)c12 | inconclusive: 26%
14 | CCn1c(=O)c(CCC(=O)NCC2CCCO2)c(C)c2c(C)nn(-c3ccc(C)cc3)c21 (stereo not given) | inactive: 0.0965%
15 | O=[N+]([O-])c1cc(C(F)(F)F)ccc1NCCNC(=S)Nc1ccc(Cl)cc1 | inconclusive: 56%
16 | S=C(NCCCCc1ccccc1)NCc1ccccc1 | active: 54.6%
17 | Cc1[nH]c2ccccc2c1[C@H]1[C@@H](CC#N)C1(C)C | inconclusive: 45.6%
18 | OCc1ccc(O)c2ncccc12 | inconclusive: 39.2%
19 | CCc1[nH]nc2c1C(c1ccsc1)C(C#N)=C(N)O2 (stereo not given) | inactive: -1.3%
20 | CC1CCCCN1c1cc(C#N)c(C#N)cc1[N+](=O)[O-] (stereo not given) | inconclusive: 36.8%
21 | CC(C)(C)n1nnnc1C(c1cccnc1)N1CCN(c2ccccc2)CC1 (stereo not given) | inconclusive: 115%
22 | Clc1ccc2oc(-c3cccnc3)nc2c1 | inactive: 0.748%
23 | Cc1ccc(C)c(S(=O)(=O)N2CCCC2CNC(=O)C(=O)NCc2ccccc2C)c1 (stereo not given) | inconclusive: 27.5%

Part of the list above in order of length of the SMILES, descending:
Row | SMILES | growth rescue
23 | Cc1ccc(C)c(S(=O)(=O)N2CCCC2CNC(=O)C(=O)NCc2ccccc2C)c1 (stereo not given) | inconclusive: 27.5%
12 | COc1cc(C)c(C)cc1S(=O)(=O)NC1CC(C)(C)NC(C)(C)C1 | inconclusive: 49.6%
7 | CCCC(=O)NC(c1ccc(Cl)cc1)c1ccc2cccnc2c1O (stereo not given) | inconclusive: 29.9%
13 | Cc1nnc(OC(C)C)c2nn(-c3ccccc3F)c(C)c12 | inconclusive: 26%
1 | CC(C)N1C(=O)CCC1C(=O)NCc1ccc(F)cc1Cl (stereo not given) | inconclusive: 46.8%

Later entries

Row | SMILES | growth rescue
24 | O=C(Nc1nc(-c2cccs2)cs1)C1=COCCO1 | inconclusive: 41.5%
25 | CCOC(=O)c1ccc(N2C(=O)CC(N3CC(C)OC(C)C3)C2=O)cc1 (stereo not given) | inactive: -0.556%
26 | Cc1cccc(N2C(=O)c3ccc(C(=O)Nc4cccc(C(=O)O)c4)cc3C2=O)c1 | inactive: -0.247%
27 | Cc1cc(C)n(C(=O)Cn2nc(C(F)F)cc2C)n1 | inactive: -0.897%
28 | Cc1ccc(-c2cc(-c3ccco3)c(C#N)c(=O)[nH]2)cc1 | inactive: -0.136%
29 | CCCCn1c(=O)[nH]c(=O)c2c1nc(-c1ccccc1OC(F)F)n2C | inactive: -0.373%
30 | CC1=C/C(=N\OS(=O)(=O)c2ccccc2)C(C(C)C)=CC1=O | active: 46.3%
31 | C=C(C)C1CC=C(C)/C(=N/Nc2ccccc2[N+](=O)[O-])C1 (stereo not given) | inactive: 0.095%
32 | COc1ccc(C(=O)/C=C2/Sc3cc4c(cc3N2C)OCO4)cc1 | inconclusive: 53.4%
33 | CC1=C(C(=O)Nc2cc(C)ccc2C)C(c2cccs2)NC(=S)N1 (stereo not given) | inactive: -1.12%
34 | CCC1CCCCN1CCCNC(=O)c1ccc(N2CCCC2=O)cc1 (stereo not given) | inactive: 0.095%
35 | Cc1cc(C)cc(-n2cnc3cc(C(=O)O)ccc32)c1 | inconclusive: 31.3%
36 | Cc1cc(Br)cc2c(C(=O)NCC3CCCO3)cc(-c3ccccc3)nc12 (stereo not given) | inconclusive: 40.7%
37 | Cc1ccc(-c2nnn(CC(=O)N(Cc3cccs3)C(C(=O)NC(C)(C)C)c3ccco3)n2)o1 (stereo not given) | inactive: 2.12%
38 | COc1cc(O)c(C(CCN2CCOCC2)c2cc(OC)c(OC)c(OC)c2)c(OC)c1 (stereo not given) | inactive: -1.45%
39 | COc1ccccc1NC(=O)CCc1nc(-c2cccs2)no1 | inconclusive: 59.1%
40 | CCOC(=O)C(=Cc1ccc(-n2cncn2)cc1)C(=O)OCC | inconclusive: 28.5%
41 | O=C(c1ccc(CNS(=O)(=O)c2ccc(Br)cc2)cc1)N1CCC2(CC1)OCCO2 | inconclusive: 37.4%
42 | O=S(=O)(c1ccc(Cl)cc1)N1CCN=C1SCc1cccc(Cl)c1 | inactive: 3.09%
43 | CCN(CC(=O)Nc1ccccc1C(=O)OC)S(=O)(=O)c1ccc(OC)cc1 | inconclusive: 26.7%
44 | O=C1NC(=S)SC1=Cc1ccccc1Br | inconclusive: 46.2%
45 | CCC(=Nc1ccccc1O)C1=C(O)CC(c2ccccc2)CC1=O (stereo not given) | inconclusive: 71.7%
46 | Cc1[nH][nH]c(=O)c1C(c1ccc(Cl)cc1)c1c(C)[nH][nH]c1=O | inactive: -1.21%

Row | SMILES | growth rescue
47 | O=C(CSC1=NNC(c2ccccn2)S1)Nc1ccccc1 (stereo not given) | inconclusive: 28.3%
48 | CC1=CN2C(=N)/C(=C/c3ccc([N+](=O)[O-])o3)C(=O)N=C2S1 | inconclusive: 189%
49 | COC1CCC(OC2CC(C3(C)CCC4(CC(O)C(C)C(C(C)/C=C(\C)C(=O)C(C)CC(C)C(=O)O)O4)O3)OC3(OC(C4OC(O)(CO)C(C)CC4C)CC3C)C2C)OC1C (stereo not given) | active: 220%
50 | S=C(NCCc1ccc(Cl)cc1)NC1CCCCC1 | active: 200%
51 | Nc1ccccc1SC(C[N+](=O)[O-])c1ccccc1 (stereo not given) | active: 33.7%
52 | Nc1ccc(CNC(=O)OCC2c3ccccc3-c3ccccc32)cc1 | inconclusive: 44.5%
53 | CN1C[C@H](CNC(=O)OCc2ccccc2)C[C@@H]2c3cccc4c3c(cn4C)C[C@H]21 | inconclusive: 37.7%
54 | CN(c1ccccc1)S(=O)(=O)c1ccc(Cl)c(C(=O)NCc2ccccc2CN2CCCC2)c1 | inconclusive: 37.1%
55 | COc1c(C)cccc1C(=O)NC(=S)Nc1ccccc1N1CCCC1 | inactive: -0.082%
56 | COc1ccc(NS(=O)(=O)c2ccc(C)c(C(=O)N(C)CC(=O)Nc3cccc(OC)c3)c2)cc1 | inconclusive: 28.7%
57 | Cc1cc(C)c2sc(NNC(=O)c3ccc(S(=O)(=O)N4CCc5ccccc5C4)cc3)nc2c1 | active: 364%
58 | c1ccc(CCCc2nc(-c3ccccn3)no2)cc1 | inconclusive: 28.3%
59 | Cc1ccc(-c2nnc(SCc3nc4ccccc4[nH]3)n2Cc2ccco2)cc1 | inactive: -0.475%
60 | CCCCCCCCCCCCCCCC[N+](C)(C)C | inconclusive: 27.5%
61 | Cc1ccc(C(O)(C(=O)NNc2ccc3ccccc3n2)c2ccc(C)cc2)cc1 | active: 74.6%
62 | C=COCCn1c(C)c(C(=O)OCC)c2cc(O)ccc21 | inactive: -0.479%
63 | COc1ccc2c(c1OC)C(=O)OC2CC(=O)c1ccc2c(c1)OCO2 (stereo not given) | inactive: -0.638%
64 | CCOc1ccc(Nc2cc(C)nc(-n3nc(C)cc3C)n2)cc1 | inconclusive: 180%
65 | Cc1ccc2[nH]cc(CCNC(=O)c3ccco3)c2c1 | inactive: 1.01%
66 | CCCS(=O)(=O)N1CCC(C(=O)N2CCCC2)CC1 | inconclusive: 36.9%
67 | OCC[C@H]1C[C@@H](O)[C@H](O)[C@]2(CCc3ccccc3O2)O1 | inconclusive: 26.7%
68 | COc1ccccc1CNC(=O)c1csc2c1CCCC2 | inconclusive: 50.3%
69 | N#Cc1c(N(CCO)CCO)nc(N)c2c(N)nc3c(c12)CC(=O)N3CC1CCCO1 (stereo not given) | inactive: 0.661%

Row | SMILES | growth rescue
70 | O=C(NCc1ccc2c(c1)OCO2)c1cc(COc2c(F)cccc2F)on1 | inactive: 0.241%
71 | Oc1c(N=Nc2ccccn2)ccc2ccccc12 | inconclusive: 37.1%
72 | CCOc1cc(/C=N/O)cc(Br)c1OC | inconclusive: 28%
73 | O=C(N/N=C/c1ccncc1)c1cccc(S(=O)(=O)Nc2ccc(Cl)cc2)c1 | inactive: 2.34%
74 | O=C(Cn1c(=O)[nH]c2ccsc2c1=O)NC1CCCCC1 | inactive: -0.482%
75 | CCOc1ccc(C2C(C(=O)c3ccc(C)o3)=C(O)C(=O)N2c2nc(C)c(C(=O)OC)s2)cc1 (stereo not given) | inactive: 0.0455%
76 | Brc1ccc2ncnc(NCc3ccccc3)c2c1 | inconclusive: 28.6%
77 | O=[N+]([O-])c1ccc2[nH]c(O)c(N=NC3CS(=O)(=O)CC3O)c2c1 (stereo not given) | inactive: -1.05%
78 | Cc1ccc(OCc2n[nH]c(=S)n2-c2ccc(C)cc2)cc1 | inconclusive: 25.1%
79 | CCCCCCCCCCCCN1[C@@H](CC(=O)O)c2cc(C(F)(F)F)ccc2S1(=O)=O | inconclusive: 41.3%
80 | CCOc1cc(/C=N/NC(N)=S)cc(Br)c1OCc1ccccc1C | active: 83.1%
81 | NC1=NC[C@H](Cc2ccc(O)cc2)N1CCc1cccc(F)c1 | inconclusive: 43.7%
82 | CCCOc1cccc(-c2nn(-c3ccccc3)cc2/C=C(\C#N)C(=O)NCCCn2ccnc2)c1 | active: 45.2%
83 | Cc1nc(-n2[nH]c3c(c2=O)CCCC3)[nH]c(=O)c1Cc1ccccc1 | active: 52.2%
84 | O=C(Nc1cccc(Br)c1)c1cc2ccccc2o1 | inconclusive: 125%
85 | O=C(NC1CCCCC1)C1CCN(c2nccs2)CC1 | inconclusive: 26.3%
86 | CC1Oc2ccccc2N(CC(=O)N(Cc2ccccc2)Cc2ccccn2)C1=O (stereo not given) | inactive: 0.062%
87 | Cc1cccc(NS(=O)(=O)c2ccc(C3CCCCC3)cc2)c1 | inconclusive: 26%
88 | COc1cc(/C=N/NC(=O)c2cc(-c3ccccc3OC(C)C)nc3ccccc23)ccc1O | inconclusive: 54.1%
89 | Cn1nc(C(F)(F)F)c2cc(NC(=O)OCc3ccc(F)cc3)sc21 | inconclusive: 26%
90 | C=CCn1c(=O)c(C(=O)NCCc2ccccc2)c(O)c2ccccc21 | active: 93.6%
